The campaign covered roughly 320,000 compounds. About 22,000 (6.9%) were called active. Inconclusive means that the source gave no clear call. Such entries were picked first, then a sample of the others. The call rests on the fitted dose curve; in most records, active means well fitted inhibition curve with a large enough effect; inconclusive means small, poorly fitted or top-dose-only effect, or another doubt; inactive means no such curve, though single readings can be large or run the other way. Potencies beside an inconclusive call are fits to weak or partial responses and may not hold up.
Test: Primary qHTS for delayed death inhibitors of the malarial parasite plastid, 96 hour incubation
Conditions: P. falciparum luciferase reporter growth; series mostly up to 28.7 µM
Method in brief: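 Readout is luminescence from an integrated firefly luciferase in P. falciparum. Red cells, 2% hematocrit and 0.05% parasitemia final, were cultured with compound through two parasite generations (96 hours) at 37 C, 5% CO2.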
Potency means the concentration at half of the fitted maximal effect.

Row | SMILES | Potency
1 | CC(=O)Nc1cccc(-c2csc(Nc3ccc(C)cn3)n2)c1 | inconclusive: 18.5 µM [inhibitor, single point]
2 | O=C(c1cccc(-c2ccco2)c1)N1CCCC(N2CCN(c3ccc(F)cc3)CC2)C1 (stereo not drawn) | inactive
3 | c1ccc(-c2nc(NCc3ccco3)c3oc4ccccc4c3n2)cc1 | inconclusive: 14.7 µM [inhibitor, single point]
4 | CC1=NN(c2nc(-c3ccc(C)cc3)cs2)C(=O)C1N=Nc1cccc(C)c1 (stereo not drawn) | inconclusive: 13.1 µM [inhibitor, partial curve, poor fit]
5 | COc1ccc(CNC(=O)c2c([S-])n(-c3ccc(C)cc3)c3cccc[n+]23)cc1 | active: 10.4 µM
6 | N#C/C(=C\c1ccccc1)C(=O)N1CCC(C(N)=O)CC1 | inactive
7 | CCS(=O)(=O)c1ccc(N=Nc2ccc(O)c3ncccc23)c(OC)c1 | inconclusive: 18.5 µM [inhibitor, single point]
8 | O=C(NCc1nc2ccccc2[nH]1)C1=C[C@H](c2csc3ccccc23)C[C@H](OCc2ccc(CO)cc2)O1 | active: 14.7 µM
9 | CCc1cccc(NC(=O)c2ccc(Br)o2)c1 | inactive
10 | CCOc1ccc(CNS(=O)(=O)c2ccc(-c3ccc(=O)[nH]n3)o2)cc1OC | inconclusive: 10.4 µM [inhibitor, single point]
11 | O=C(N/C(=C/c1ccc(Br)cc1)C(=O)N1CCCCC1)c1ccccc1F | inactive
12 | NNC(=O)c1cc(C23CC4CC(CC(C4)C2)C3)[nH]n1 | inconclusive: 18.5 µM [inhibitor, single point]
13 | CC(=O)Nc1ccc(NC(=O)c2ccccc2N(C)S(=O)(=O)c2ccccc2)cc1 | inconclusive: 13.1 µM [inhibitor, single point]
14 | O=C(COc1ccccc1)NC(=S)Nc1ccc2c3c(cccc13)CC2 | inactive
15 | CC(/C=C1\SC(=S)N(CCCC(=O)Nc2ccc(C(=O)O)cc2)C1=O)=C\c1ccccc1 | inconclusive: 1.65 µM [inhibitor, full curve, poor fit]
16 | Oc1cccc(C(=S)N2CCC(Cc3ccccc3)CC2)c1 | inconclusive: 11.7 µM [inhibitor, single point]
17 | O=C(c1ccc([N+](=O)[O-])o1)N1CCN(c2nc3c(Cl)cccc3s2)CC1 | active: 1.04 µM
18 | O=C(NC(Cc1ccccc1)C(=O)O)/C(=C\c1ccc(Cl)cc1)NC(=O)c1ccco1 (stereo not drawn) | inactive
19 | CCc1ccc(N=C2NC(=O)CS2)cc1 | active: 9.28 µM
20 | O=C(COc1ccccc1)Nc1ccccc1N1CCN(c2ccccc2)CC1 | active: 2.94 µM
21 | CSc1ccccc1NC(=O)CN1CCN(Cc2ccccc2)CC1 | inactive
22 | COc1ccc2ccc(O)c(CN3CCN(S(=O)(=O)c4cccc(C(F)(F)F)c4)CC3)c2c1 | inconclusive: 11.7 µM [inhibitor, single point]
23 | Cc1onc(-c2c(F)cccc2Cl)c1C(=O)Nc1sc2c(c1C(N)=O)CCC2 | inconclusive: 13.1 µM [inhibitor, single point]

By substructure: the entries above with a halogen.
Row | SMILES | Potency
2 | O=C(c1cccc(-c2ccco2)c1)N1CCCC(N2CCN(c3ccc(F)cc3)CC2)C1 (stereo not drawn) | inactive
9 | CCc1cccc(NC(=O)c2ccc(Br)o2)c1 | inactive
11 | O=C(N/C(=C/c1ccc(Br)cc1)C(=O)N1CCCCC1)c1ccccc1F | inactive
17 | O=C(c1ccc([N+](=O)[O-])o1)N1CCN(c2nc3c(Cl)cccc3s2)CC1 | active: 1.04 µM
18 | O=C(NC(Cc1ccccc1)C(=O)O)/C(=C\c1ccc(Cl)cc1)NC(=O)c1ccco1 (stereo not drawn) | inactive
22 | COc1ccc2ccc(O)c(CN3CCN(S(=O)(=O)c4cccc(C(F)(F)F)c4)CC3)c2c1 | inconclusive: 11.7 µM [inhibitor, single point]
23 | Cc1onc(-c2c(F)cccc2Cl)c1C(=O)Nc1sc2c(c1C(N)=O)CCC2 | inconclusive: 13.1 µM [inhibitor, single point]

More compounds

Row | SMILES | Potency
24 | Cc1[nH]c(SCC(=O)Nc2cc(S(C)(=O)=O)ccc2Cl)nc1Cc1ccccc1 | inconclusive: 11.7 µM [inhibitor, partial curve, poor fit]
25 | COc1ccc(NC(=O)Cn2nnc(C(=O)NCc3ccco3)c2N)cc1 | inactive
26 | CCCCn1c(SCC(=O)Nc2ccc(NC(C)=O)cc2)nc2ccccc2c1=O | inconclusive: 18.5 µM [inhibitor, single point]
27 | COc1ccc(C(=O)C2CCCN(Cc3ccc(C#CCCO)cc3)C2)c(OC)c1 (stereo not drawn) | inconclusive: 18.5 µM [inhibitor, single point]
28 | CC(Oc1ccc(Cl)cc1)C(=O)Nc1sccc1C(N)=O (stereo not drawn) | inconclusive: 16.5 µM [inhibitor, single point]
29 | COc1cccc(Nc2nc(C)cc(C)c2C(N)=O)c1 | inactive
30 | O=C(c1cccs1)N1CCN(S(=O)(=O)Cc2ccccc2)CC1 | inconclusive: 0.465 µM [inhibitor, partial curve, poor fit]
31 | COc1ccccc1-c1nc(C#N)c(N2CCc3ccccc3C2)o1 | inconclusive: 13.1 µM [inhibitor, single point]
32 | COc1ccc(C(=O)NC2(C(F)(F)F)NC(=O)N(CCCc3ccccc3)C2=O)cc1OC (stereo not drawn) | inconclusive: 14.7 µM [inhibitor, single point]
33 | O=C(Nc1cc(Br)ccc1O)c1cc(-c2ccc3c(c2)OCO3)on1 | inactive
34 | COc1ccc(N2CCN(C(=O)COC(=O)c3cc(S(=O)(=O)N(C)C)ccc3N3CCCC3)CC2)cc1 | inconclusive: 3.7 µM [inhibitor, partial curve]
35 | COc1ccc(C(C(=O)NC2CCCCC2)N(C(=O)c2snc(C(N)=O)c2N)c2ccccc2OC)cc1 (stereo not drawn) | inactive
36 | Cc1ccc(N(CC(O)Cn2c3ccccc3c3ccccc32)S(C)(=O)=O)cc1 (stereo not drawn) | inconclusive: 16.5 µM [inhibitor, single point]
37 | Cn1c(=O)oc2cc(S(=O)(=O)N3CCCC(C(=O)NCc4ccc5c(c4)OCO5)C3)ccc21 (stereo not drawn) | inconclusive: 7.38 µM [inhibitor, partial curve, poor fit]
38 | COC(=O)c1cnc(N2CCCN(S(=O)(=O)c3ccc(C(F)(F)F)cc3)CC2)nc1C(F)(F)F | inactive
39 | CC(=O)NNc1ncnc2c1cnn2-c1ccc(C)cc1 | inconclusive: 3.7 µM [inhibitor, full curve, poor fit]
40 | O=C(Nc1ccc2nc(-c3ccco3)c(-c3ccco3)nc2c1)NC1CC1 | inactive
41 | O=C(C1CCCCC1)N1CCN=C1SCc1cccc([N+](=O)[O-])c1 | inconclusive: 0.37 µM [inhibitor, partial curve, poor fit]
42 | COc1ccc(CCNC(=O)CNS(=O)(=O)c2ccc(F)c(Cl)c2)cc1OC | inconclusive: 18.5 µM [inhibitor, single point]
43 | COc1cccc(-c2nc(-c3ccccn3)no2)c1OC | inactive
44 | Cc1nn(-c2ccccc2)c(N2CCCCC2)c1/C=N/NC(=O)c1ccncc1 | inconclusive: 1.17 µM [inhibitor, partial curve, poor fit]
45 | CCc1nc2ccccc2c(C(=O)Nc2cccc(C)c2)c1C | inconclusive: 18.5 µM [inhibitor, single point]
46 | Cc1ccc(NC(=S)NCCC2=CCCCC2)cc1 | inconclusive: 18.5 µM [inhibitor, single point]

Fetched by compound from above:
Row | SMILES | Potency
26 | CCCCn1c(SCC(=O)Nc2ccc(NC(C)=O)cc2)nc2ccccc2c1=O | inconclusive: 18.5 µM [inhibitor, single point]
29 | COc1cccc(Nc2nc(C)cc(C)c2C(N)=O)c1 | inactive

Next part

Row | SMILES | Potency
47 | CC1(C)Oc2ccc(C#N)cc2[C@@H](N2CCCC2=O)[C@@H]1O | inactive
48 | O=C(NCCc1cn[nH]c1)C1CCC(=O)N(CCc2cccc(F)c2)C1 (stereo not drawn) | inconclusive: 18.5 µM [inhibitor, single point]
49 | COc1ccccc1C/C(N)=N/OC(=O)COc1cc(C)cc(C)c1C | inconclusive: 9.28 µM [inhibitor, single point]
50 | Cc1ccc(S(=O)(=O)N2CCOCC2)cc1NC(=O)CSc1nnc(N)s1 | inactive
51 | O=C(NCCc1c[nH]c2ccccc12)C(=O)NCC1OCCN1S(=O)(=O)c1ccc(Cl)cc1 (stereo not drawn) | inconclusive: 14.7 µM [inhibitor, single point]
52 | O=C(c1c(F)cccc1F)N(C1CCCCC1)C1CCCCC1 | inactive
53 | CCOC(=O)c1[nH]c2c(c1C)C(=O)CC(c1ccc(F)cc1)C2 (stereo not drawn) | inconclusive: 18.5 µM [inhibitor, single point]
54 | Cc1ccc(C(=O)N2CCOCC2)cc1[N+](=O)[O-] | inconclusive: 11.7 µM [inhibitor, single point]
55 | COCCCNc1nc2ccccc2nc1NS(=O)(=O)c1cc(Cl)ccc1Cl | inactive
56 | O=C(N/N=C/c1c(O)n(CCc2ccccc2)c(=O)[nH]c1=O)c1ccncc1 | inconclusive: 10.4 µM [inhibitor, single point]
57 | COC(=O)Cn1c(=NC(=O)C2COc3ccccc3O2)sc2cc(S(N)(=O)=O)ccc21 (stereo not drawn) | inactive
58 | CC(=O)NC(=S)Nc1ccc(S(=O)(=O)Nc2nc(C)cc(C)n2)cc1 | inconclusive: 4.65 µM [inhibitor, partial curve, poor fit]
59 | CC(=O)Nc1cccc(-c2nnc3c4ccccc4c(C)nn23)c1 | inconclusive: 18.5 µM [inhibitor, single point]
60 | COc1ccc(O)c(CN2CCC(n3nccc3NC(=O)CCOc3ccccc3)CC2)c1 | inconclusive: 9.28 µM [inhibitor, partial curve, poor fit]
61 | CC(C)c1nnc(NC(=O)c2nc(S(=O)(=O)Cc3ccccc3)ncc2Cl)s1 | inactive
62 | CCN1CCN(c2ccc(S(=O)(=O)N3CCCCC3)cc2NC(=O)c2ccc(C)o2)CC1 | inconclusive: 10.4 µM [inhibitor, partial curve]
63 | Cn1c(SCC(=O)Nc2cccc(S(=O)(=O)NC3=NCCCCC3)c2)nnc1-c1ccncc1 | inconclusive: 0.233 µM [inhibitor, partial curve]
64 | Cc1ccc(-n2cccn2)c([C@@H]2C[C@H]3CN(C)C(=O)[C@]34CCCN24)c1 | inconclusive: 18.5 µM [inhibitor, single point]
65 | Cc1cc([N+](=O)[O-])nn1CC(=O)Nc1ccccn1 | inactive
66 | Nc1c(C(=O)NCCN2CCOCC2)c2nc3ccccc3nc2n1Cc1ccco1 | inconclusive: 13.1 µM [inhibitor, partial curve, poor fit]
67 | CCc1cc(OCCN(C)C)ccc1Cl | inconclusive: 18.5 µM [inhibitor, single point]
68 | CCCNC(=O)OC[C@H]1O[C@H](CCO/N=C(\C)CCN2CCc3nc(-c4ccccc4)c(-c4ccccc4)cc3C2)C=C[C@@H]1Oc1ccc(OC)cc1 | active: 4.65 µM

Reference: PubChem BioAssay AID504834 (National Center for Advancing Translational Sciences (NCATS), 2011)
